Test results from publication PMC5996148.
The other results are listed elsewhere or left out.

How the values were obtained:
Assay in all cases: protein microarray (ProtoArray v5.0), streptavidin-Alexa Fluor 647
Details in all cases: 3'-biotin; 20 mM Tris (pH 7.5), 5 mM MgCl2, 100 mM KCl, 0.1% Tween-20, A/T-rich and random oligonucleotide blockers; temperature not stated; high values mean tight binding
USP48 (human) = system: USP48 (human)
UTP3 (human) = system: UTP3 (human)
Ubiquilin-4 (human) = system: Ubiquilin-4 (human)
[1] = system: Ubiquilin-like protein (human)
[2] = system: Ubiquitin carboxyl-terminal hydrolase 24 (human)
[3] = system: Ubiquitin-conjugating enzyme E2 Z (human)
[4] = system: Uncharacterized protein C11orf48 (human)
[5] = system: Uncharacterized protein C11orf74 (human)
[6] = system: Uncharacterized protein C12orf60 (human)
[7] = system: Uncharacterized protein C17orf66 (human)

Sequence: GGGGACAGGGGTATGGGGAGGGG [G4-3 biotinylated (CtG)]
- binding signal (USP48 (human)): -0.334 z-score
- binding signal (UTP3 (human)): -0.349 z-score
- binding signal (Ubiquilin-4 (human)): -0.324 z-score
- binding signal [1]: -0.329 z-score
- binding signal [2]: -0.333 z-score
- binding signal [3]: -0.302 z-score
- binding signal [4]: -0.331 z-score
- binding signal [5]: -0.333 z-score
- binding signal [6]: -0.325 z-score
- binding signal [7]: -0.326 z-score
